From the supplement of paper PMC5949888
Most values lie at the floor of the assay. Slopes are relative: functional sequences can read slightly below zero.

system: Saccharomyces cerevisiae PS128 hsf1 delta, HSF1(1-493) fusion; test: growth estimate (transactivation domain function in HSF1 fusion, heat-shock survival) (a.u. (slope of normalised read count over time)); higher = stronger growth at 37°C, i.e. more transactivation activity; details: library: random library
Protocol: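 Random 60-nt DNA library encoding peptides of up to 20 aa, fused to the C-terminus of yeast HSF1 residues 1-493 (C-terminal TAD deleted) and expressed from the native HSF1 promoter on a CEN plasmid in hsf1-deleted S. cerevisiae PS128. Cells were selected at 37°C on -trp 5-FOA plates for 0, 2, 4, 6 and 8 days and amplicons were sequenced. Growth estimate is the slope of a robust linear fit of total-sum-normalised read counts (normalised to the first time point) over time, using at least 2 replicates. Sequences are classed functional (TAD activity) above a threshold of -0.13, set from stop-codon control sequences.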

| Substance | growth estimate |
| --- | --- |
| CAEGRWGVGWGGRRRLLHS | < -0.25 |
| CAEVVSADGYCAMLGRCPQT | < -0.25 |
| CAGNSPGVKRLT | < -0.25 |
| CAHSSEVVDE | < -0.25 |
| CAIDIIVSGAATFDI | < -0.25 |
| CALDHTRPEEFGRHLRVVPF | -0.245 |
| CAPAIF | < -0.25 |
| CAPAILHTRRRKGLQGYIWA | < -0.25 |
| CAPRYLVVQELPASLEAKLQ | < -0.25 |
| CAPSK | < -0.25 |
| CAS | < -0.25 |
| CAVSSDQRVAVPSCSVRRVA | < -0.25 |
| CAYLYHSVRYRIRGNLRVGL | < -0.25 |
| CCAAAPVRDVPHIHLVGPEG | < -0.25 |
| CCEESFAQL | < -0.25 |
| CCELISPMLVFAPGGCEGKT | < -0.25 |
| CCI | < -0.25 |
| CCMGRIAL | < -0.25 |
| CCPAPNA | < -0.25 |
| CCSNAIMMPTSRPPS | < -0.25 |
| CCTLADSFAHRSV | < -0.25 |
| CCVDTGVETSREQSARIISG | -0.245 |
| CCYGARDI | < -0.25 |
| CDEARERDLRLSSEVITICR | < -0.25 |
| CDGCGTKNDSSGF | -0.248 |

| Substance | growth estimate |
| --- | --- |
| CDGLNKR | < -0.25 |
| CDGTAA | -0.243 |
| CDPRFGNVCERTALGVRCHV | < -0.25 |
| CDPVAHHMSGANSGME | < -0.25 |
| CDRSAFSAQTQRCWSILRWL | 0.126 |
| CDVCIPVSPAVSAGQAA | < -0.25 |
| CDVDGF | < -0.25 |
| CDWGVNSAKASRDARVCYGE | < -0.25 |
| CEALLMMSR | < -0.25 |
| CEAMLWTVSNHSIKGRIAVK | < -0.25 |
| CEESTSCMARCECEPLMRNG | < -0.253 |
| CEGARFRDKPHVHQHLYDCL | < -0.25 |
| CEGGGVILVACAPCSEFAPL | < -0.25 |
| CEGQSRASKEWAGGAPYHVE | < -0.25 |
| CEGVMCSFGAEDTTNIDWGQ | -0.123 |
| CEILVGCPDY | < -0.25 |
| CEKGPVQLQTHRCEGAS | < -0.25 |
| CELHFPSTNQSRRDTLEKQV | < -0.25 |
| CEMQSTF | < -0.25 |
| CENHDT | < -0.25 |
| CEPQVGGCQVVGPLL | < -0.25 |
| CER | < -0.25 |
| CESQGGSKVSGQGTLAR | < -0.25 |
| CEYWSLARRHPRSVTRDGRS | < -0.25 |
| CFCNERIVHG | < -0.25 |

| Substance | growth estimate |
| --- | --- |
| CFGLKVWRQSHLSL | < -0.25 |
| CFGRHHVQLTAL | < -0.25 |
| CFIMYFLVIGSML | < -0.25 |
| CFLKSGRPDACLRVLGTGSG | < -0.25 |
| CFPGSCRQIGPPRGGSNGCP | < -0.25 |
| CFTGVKGSPWLLAVPIAVGP | -0.241 |
| CFVRQLEVRSFSAIHGAVR | < -0.25 |
| CGALPQRSEN | < -0.25 |
| CGCAHERCATTEGVANQRIV | < -0.25 |
| CGCVCTRDELVIH | < -0.25 |
| CGDEVLQPGGRPASCVIEVR | < -0.25 |
| CGEQTEG | < -0.25 |
| CGEV | < -0.25 |
| CGGSSISFFCSC | < -0.25 |
| CGHGKIFSVGAHEYWGSLSP | -0.187 |
| CGI | -0.219 |
| CGIRV | < -0.25 |
| CGK | < -0.25 |
| CGKLYRIGILWFTQPVYRKI | < -0.25 |
| CGKNESICVLRSTRAGGQ | < -0.25 |
| CGKRWRCRTDNFRPCSSHKL | < -0.25 |
| CGL | < -0.25 |
| CGLGCGCFVFGSDEAAG | -0.243 |
| CGLSAHGIPCTDGDCRYWGS | < -0.25 |
| CGLVTSVI | < -0.25 |

| Substance | growth estimate |
| --- | --- |
| CGRSR | < -0.25 |
| CGSVKSTPSDTTSCGVQAAP | < -0.25 |
| CGSWIGGLTDCLHRCTVRGT | < -0.25 |
| CGTEGRRACRGRISLSLQWP | < -0.25 |
| CGTLVMNTATLLGNACGLTH | < -0.25 |
| CGTNELNREAACRGGGGLIG | < -0.25 |
| CGVGAVLVEKL | < -0.25 |
| CHGPCLYGQCRFD | < -0.25 |
| CHPSSCFSNRRLPCLAMAMR | < -0.25 |
| CHPTGTCQPRLCITGLGSQQ | < -0.25 |
| CHPYSPRVIWSLTGILGVAR | < -0.25 |
| CHTL | < -0.25 |
| CHYSTDLPTL | < -0.25 |
| CHYTHSKLLIRG | < -0.251 |
| CIAATTICLGTMAEPAHVKN | < -0.25 |
| CIASLCGLEQRSGR | < -0.25 |
| CICRQAQRRCLRETAMGEHT | < -0.25 |
| CIEGGFRLKWIKGNTY | < -0.25 |
| CIEPSARSVCANFVVVYRVA | < -0.25 |
| CIGFA | < -0.25 |
| CIGFSTQSLVVDQFAHRRSA | < -0.25 |
| CIGPEAPGYFNLGAMAPVHS | < -0.25 |
| CIGTGIE | < -0.25 |
| CIHTWAPESMSESGSNLPGT | < -0.25 |
| CIIRATEGRALSVVEPQITQ | < -0.25 |

| Substance | growth estimate |
| --- | --- |
| CIKRDPQISAKMRERFSLEW | < -0.25 |
| CILFWEI | < -0.25 |
| CILHSSMLLFG | < -0.25 |
| CILSVLV | < -0.25 |
| CINYLRVQWLQAETVIDSRD | < -0.25 |
| CIQLTLTVGPFEYEGTAGV | < -0.25 |
| CIR | < -0.25 |
| CISCSGARLGCVFPYLRFVG | < -0.25 |
| CITVLIRVSASPVRIPSNSQ | < -0.25 |
| CIVGQACPKWQKTILDLGCP | < -0.25 |
| CIVLAARLPLSHFLSDPRIA | < -0.25 |
| CIVSLGYG | < -0.25 |
| CIWTCRDLRPSRSTIPMNQG | < -0.25 |
| CIYLRPA | < -0.25 |
| CKARWHVLCTEDSGQPKRRL | < -0.25 |
| CKC | -0.243 |
| CKITSLWAAG | -0.196 |
| CKLNRCPCQTDESCSVGTEP | < -0.25 |
| CKLSFNQNGFMGRSSSMYWQ | < -0.25 |
| CKRVRI | < -0.25 |
| CKSTCSRADLAGHTYLSLTT | < -0.25 |
| CKYAVSAP | < -0.25 |
| CKYGTCAKWCDGSSVSWARW | < -0.25 |
| CLCPRDHQNFI | < -0.25 |
| CLELRKATNSRLLDMAHIEL | < -0.25 |

| Substance | growth estimate |
| --- | --- |
| CLEWVCREGPHRNLLARRVL | < -0.25 |
| CLFMWAVVTVL | -0.246 |
| CLFSNWLVKK | < -0.25 |
| CLGGNGRI | < -0.25 |
| CLGLLWYSATAIR | < -0.25 |
| CLGPLPAVSRFRVSDAQPGL | < -0.25 |
| CLGTCEPDRRAFL | < -0.25 |
| CLGVSCAAPCWVPDLAMP | < -0.25 |
| CLGYRTYSGVRRELTGT | < -0.25 |
| CLHLTIGASLHPKLSREDRS | < -0.25 |
| CLHVKVVHVNHKRLWWILST | < -0.25 |
| CLIPWGRFLPYPRLKQGDFM | < -0.25 |
| CLKMT | < -0.25 |
| CLLASTAL | < -0.25 |
| CLLVRMRCR | < -0.25 |
| CLNDSNF | < -0.25 |
| CLPEHRQFLRYSID | < -0.25 |
| CLPSFIDASALSVGF | < -0.25 |
| CLRNVKHRFEVLVMDKGPAC | < -0.25 |
| CLRRMRDSRRVGVAGKTSVA | < -0.25 |
| CLS | < -0.25 |
| CLSSRECENCSLSSPAYSGQ | < -0.25 |
| CLSSSRFGDSS | < -0.25 |
| CLTDSVFSC | < -0.25 |
| CLTI | < -0.25 |

Some of the entries so far, bar-delimited:
Substance | growth estimate
CLLVRMRCR | < -0.25
CLNDSNF | < -0.25
CLPEHRQFLRYSID | < -0.25
CLPSFIDASALSVGF | < -0.25
CLRNVKHRFEVLVMDKGPAC | < -0.25
CLRRMRDSRRVGVAGKTSVA | < -0.25
CLS | < -0.25

Following part.

| Substance | growth estimate |
| --- | --- |
| CLTSVYLLDGLGYALLKCT | < -0.25 |
| CLYSR | < -0.25 |
| CMNAHNYEGLYVGKFEPSAS | < -0.25 |
| CMSLEQRDGMICSQECRGIT | < -0.25 |
| CMVLFECELPSL | < -0.25 |
| CNASYTWIWAAL | < -0.25 |
| CNERSGNCNAGFL | < -0.25 |
| CNGE | < -0.25 |
| CNIRLMEEYKKSIVRGLKAS | < -0.25 |
| CNMSGTS | < -0.25 |
| CNPKARCEPKVPSTV | < -0.25 |
| CNPKASQVSSEAREHVNIGG | < -0.25 |
| CNRTTTRRRRYI | < -0.25 |
| CPDRPYQALPTRTVVGANGS | < -0.25 |
| CPFCVENFIGYALR | < -0.25 |
| CPFLTPVRFIGSPSVYTLWA | < -0.25 |
| CPG | < -0.25 |
| CPGERGCQLLFSQSPQASGY | < -0.25 |
| CPGSNWTLSG | < -0.25 |
| CPNAACSFAPTLTRENCGRH | < -0.25 |
| CPPDRMAMLHSIWRHTGFEA | < -0.25 |
| CPPRHMDSSVLGNQRLDPAS | < -0.25 |
| CPSSQLR | < -0.25 |
| CPSVGRRSRLPCTSSRDQRI | < -0.25 |
| CPVS | < -0.25 |

| Substance | growth estimate |
| --- | --- |
| CPYLLTHCLCAFEIGWFSTG | < -0.25 |
| CQCLRWCPGLSPKKFLSLPR | < -0.25 |
| CQDGVIFNKWPC | < -0.25 |
| CQFFIFGCRQRVDADSV | < -0.25 |
| CQHQTATAEGYLWWIPEVIG | < -0.25 |
| CQHRCTWGLPSIPVSAV | < -0.25 |
| CQII | < -0.25 |
| CQISRM | -0.246 |
| CQLFSVG | < -0.25 |
| CQLLNKKVGEMHRGPLSQAP | < -0.25 |
| CQR | < -0.25 |
| CQTRDQVGNL | < -0.25 |
| CQTSAVRLPSPNHCRLMHVV | < -0.25 |
| CRAVCG | < -0.25 |
| CRF | < -0.25 |
| CRFR | < -0.25 |
| CRFSC | < -0.25 |
| CRFSVPNFMLLYSVAEMHMS | -0.208 |
| CRFVRHRI | < -0.25 |

Laid out differently: entries from further up.
CDWGVNSAKASRDARVCYGE
  growth estimate = < -0.25
CEALLMMSR
  growth estimate = < -0.25
CEAMLWTVSNHSIKGRIAVK
  growth estimate = < -0.25
